# Reference: paper PMC4866733 (PLoS Genetics, 2016)
# Chains of the proteins cited; added tags and fusions are not shown. Lines headed by an entry give the natural chain unless they say otherwise; changes in a name come on top.
# UniProt Q9HX42: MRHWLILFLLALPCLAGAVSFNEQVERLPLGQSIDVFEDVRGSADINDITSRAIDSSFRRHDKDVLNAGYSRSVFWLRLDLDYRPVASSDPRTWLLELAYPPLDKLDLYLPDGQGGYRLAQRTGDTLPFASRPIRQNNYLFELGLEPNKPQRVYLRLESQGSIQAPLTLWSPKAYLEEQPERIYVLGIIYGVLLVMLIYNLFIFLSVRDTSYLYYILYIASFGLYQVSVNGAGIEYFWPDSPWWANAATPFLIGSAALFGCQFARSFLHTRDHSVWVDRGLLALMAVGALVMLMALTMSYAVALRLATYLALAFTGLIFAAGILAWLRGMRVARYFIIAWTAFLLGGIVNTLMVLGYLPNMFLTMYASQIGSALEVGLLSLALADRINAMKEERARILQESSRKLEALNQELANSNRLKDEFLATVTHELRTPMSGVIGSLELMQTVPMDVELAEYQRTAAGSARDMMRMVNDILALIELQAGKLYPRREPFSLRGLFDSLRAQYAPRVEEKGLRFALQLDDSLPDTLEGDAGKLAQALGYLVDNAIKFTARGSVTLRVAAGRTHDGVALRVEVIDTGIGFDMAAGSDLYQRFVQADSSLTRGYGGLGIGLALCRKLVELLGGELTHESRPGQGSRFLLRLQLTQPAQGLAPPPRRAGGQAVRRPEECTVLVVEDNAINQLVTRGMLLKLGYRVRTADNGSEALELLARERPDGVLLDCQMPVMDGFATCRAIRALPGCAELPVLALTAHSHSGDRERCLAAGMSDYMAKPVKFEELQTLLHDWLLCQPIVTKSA
# No constants are given. Whether binding was seen depends on the method and setting. Binding can be weak; no strength is given.
# Biological target: H2 domain of GacS HK, cyaAT25 two-hybrid fusion (Pseudomonas aeruginosa) (UniProt G3XD98)
# Experiment: two-hybrid; bacterial two-hybrid, cyaAT18 (pUT18C) and cyaAT25 (pKT25) fusions co-transformed in E. coli BTH101; blue colonies on X-gal/IPTG plates after 24 hours at 30°C and β-galactosidase activity in Miller units after 16 hours of growth
substance,measurement,value
"D1 domain of LadS HK, cyaAT18 two-hybrid fusion (from UniProt Q9HX42) (domain or fragment)",binding,binds weakly
